Assay results reported in patent US20190054137A1 (INDIANA UNIVERSITY RESEARCH AND TECHNOLOGY, published 2019).
No constants are given. Whether binding was seen depends on the method and setting. Some binding calls cover weakened binding; strength is not graded here. Sequences can lack the tags named with a protein.

Amino acid sequences for entries named in this document (tags omitted).
UniProt Q04206: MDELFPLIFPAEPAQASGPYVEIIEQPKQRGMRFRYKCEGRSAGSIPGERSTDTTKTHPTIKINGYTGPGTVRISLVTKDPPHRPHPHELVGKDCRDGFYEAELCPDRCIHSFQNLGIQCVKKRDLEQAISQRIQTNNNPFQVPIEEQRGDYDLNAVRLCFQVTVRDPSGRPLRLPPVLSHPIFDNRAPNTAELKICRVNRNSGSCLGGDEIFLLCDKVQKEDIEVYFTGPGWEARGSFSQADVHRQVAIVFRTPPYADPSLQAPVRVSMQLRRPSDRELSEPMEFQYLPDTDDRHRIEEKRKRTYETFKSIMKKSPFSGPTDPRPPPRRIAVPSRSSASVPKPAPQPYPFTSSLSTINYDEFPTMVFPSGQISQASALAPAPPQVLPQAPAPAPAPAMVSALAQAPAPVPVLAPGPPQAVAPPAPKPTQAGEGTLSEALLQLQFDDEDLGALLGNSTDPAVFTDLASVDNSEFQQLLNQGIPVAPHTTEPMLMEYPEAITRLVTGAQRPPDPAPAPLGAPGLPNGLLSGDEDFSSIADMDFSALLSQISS

Target: Recombinant human p65 protein (r-p65) with DDK tag (OriGene catalog number TP320780) (human) (UniProt Q04206)
Assay: plate-bound r-GILZ (0.5 µM to 20 µM) probed with 80 pM r-p65, anti-DDK detection; used as the 100% reference

binding: binds
B1: purified recombinant human GILZ protein (r-GILZ) with GST tag (protein, UniProt Q99576 1-134, looked up, not shown: a dimerising Fc or GST)
chain: MNTEMYQTPMEVAVYQLHNFSISFFSSLLGGDVVSVKLDNSASGASVVAIDNKIEQAMDLVKNHLMYAVREEVEILKEQIRELVEKNSQLERENTLLKTLASPEQLEKFQSCLSPEEPAPESPQVPEAPGGSAV
